This is an account of results in paper PMC11956869.

No constants are given. Whether binding was seen depends on the method and setting. For part of these data: Binding seen in cells or lysates may run through a third protein. Some binding calls cover weakened binding; strength is not graded here. For part of these data: Sequences can lack the tags named with a protein.

Experiment [1] addresses T1, 6xHis-Mer-CFP (Mer-mTurquoise2) recombinant protein (Drosophila) (UniProt Q24564).
T1 sequence: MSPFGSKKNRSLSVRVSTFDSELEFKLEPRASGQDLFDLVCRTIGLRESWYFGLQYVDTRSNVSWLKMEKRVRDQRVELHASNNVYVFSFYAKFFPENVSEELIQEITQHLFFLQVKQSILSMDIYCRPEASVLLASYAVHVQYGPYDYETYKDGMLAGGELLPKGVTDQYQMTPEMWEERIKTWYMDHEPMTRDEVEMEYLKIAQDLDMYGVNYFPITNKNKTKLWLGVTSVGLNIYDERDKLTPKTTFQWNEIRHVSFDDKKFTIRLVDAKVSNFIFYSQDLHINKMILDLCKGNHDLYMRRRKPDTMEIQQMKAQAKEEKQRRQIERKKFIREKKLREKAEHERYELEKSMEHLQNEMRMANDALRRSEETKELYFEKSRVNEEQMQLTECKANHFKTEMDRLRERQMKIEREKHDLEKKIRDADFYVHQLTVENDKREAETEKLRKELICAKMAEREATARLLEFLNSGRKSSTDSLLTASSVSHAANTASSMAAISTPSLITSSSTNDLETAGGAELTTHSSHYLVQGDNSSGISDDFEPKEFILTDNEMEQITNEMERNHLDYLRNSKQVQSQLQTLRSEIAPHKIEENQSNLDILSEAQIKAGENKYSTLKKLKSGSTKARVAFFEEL
Kind of experiment: in vitro phase separation assay, enrichment in condensates seen by confocal microscopy; 0.3 uM purified Sav/mScarlet-Hpo complex added 2 h after induction of Mer-CFP condensation (0.3 uM Mer-CFP, 150 mM NaCl); imaged 30 min later; both purified.

For experiment [2], the target named is T2, 6xHis-Sav (co-expressed with mScarlet-Hpo) (Drosophila) (UniProt Q9VCR6).
T2 sequence: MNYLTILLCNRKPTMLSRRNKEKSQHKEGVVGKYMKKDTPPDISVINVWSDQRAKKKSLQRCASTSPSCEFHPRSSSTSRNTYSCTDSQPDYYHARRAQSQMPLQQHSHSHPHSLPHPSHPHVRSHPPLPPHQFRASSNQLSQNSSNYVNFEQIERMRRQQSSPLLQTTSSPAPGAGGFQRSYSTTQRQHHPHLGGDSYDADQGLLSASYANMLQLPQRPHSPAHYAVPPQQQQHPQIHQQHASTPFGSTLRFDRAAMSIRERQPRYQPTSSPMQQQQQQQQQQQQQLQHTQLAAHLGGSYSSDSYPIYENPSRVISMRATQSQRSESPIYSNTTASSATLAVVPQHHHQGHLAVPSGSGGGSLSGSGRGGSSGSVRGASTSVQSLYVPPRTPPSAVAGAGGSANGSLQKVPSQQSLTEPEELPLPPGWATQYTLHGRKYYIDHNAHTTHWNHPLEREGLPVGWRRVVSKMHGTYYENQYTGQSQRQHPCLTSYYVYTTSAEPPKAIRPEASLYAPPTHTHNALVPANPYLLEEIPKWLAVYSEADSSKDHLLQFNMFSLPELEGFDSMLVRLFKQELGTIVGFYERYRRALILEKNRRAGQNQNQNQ
Kind of experiment: co-purification on Ni-NTA; 6xHis-Sav and mScarlet-Hpo co-expressed in E. coli BL21(DE3); lysate in 50 mM Tris-HCl pH 7.5, 500 mM NaCl, 5 mM imidazole, 1 mM DTT on Ni-NTA agarose, washed with 50 mM imidazole, eluted with 150 mM imidazole.

The target in experiment [3] is Merlin (Mer), full length, expressed in S2R+ cells (Drosophila) (UniProt Q24564). Briefly: cross-linking; intact transfected S2R+ cells in PBS pH 8.0, 0.05 mM disuccinimidyl suberate (DSS), room temperature 30 min, quenched with 20 mM Tris-HCl pH 7.5, western blot. (A western blot detects proteins with antibodies after separation by electrophoresis.)

B1: 6xHis-Sav/mScarlet-Hpo protein complex (complex, UniProt Q9VCR6 1-608; Q8T0S6 1-669)
chain 1: T2 sequence
chain 2: MSEPEVTSVVDMKSPNISSSCSFFKLKKLSEESLLQPPEKVFDIMYKLGEGSYGSVYKAVHKESSSIVAIKLVPVESDLHEIIKEISIMQQCDSPYVVRYYGSYFKQYDLWICMEYCGAGSVSDIMRLRKKTLTEDEIATILSDTLQGLVYLHLRRKIHRDIKAANILLNTEGYAKLADFGVAGQLTDTMAKRNTVIGTPFWMAPEVIEEIGYDCVADIWSLGITALEMAEGKPPYGEIHPMRAIFMIPQKPPPSFREPDRWSTEFIDFVSKCLVKEPDDRATATELLEHEFIRNAKHRSILKPMLEETCAIREQQRANRSFGGVLAASQAKSLATQENGMQQHITDNAFMEDPGTLVPEKFGEYQQSSASDATMIAHAEQGVDEGTLGPGGLRNLSKAAAPAAASSAASPLDMPAVDSGTMVELESNLGTMVINSDSDDSTTAKNNDDQKPRNRYRPQFLEHFDRKNAGDGRGDEKPIATEYSPAAAEQQQQQQQQQQQQQQDEQHLASGANDLNNWEHNMEMQFQQISAINQYGLQQHQQQQQVLMAYPLMNEQLIALNNQPNLLLSNAAPMGQQGIPAAAPAQPPPAYQNQHMHTQSHAYVEGEFEFLKFLTFDDLNQRLCNIDHEMELEIEQLNKKYNAKRQPIVDAMNAKRKRQQNINNNLIKI
For the molecule B1, in experiment [1], the binding entry is listed as “binds”.

B2: mScarlet-Hpo (co-expressed with 6xHis-Sav) (protein, UniProt Q8T0S6 1-669)
chain: B1 chain 2
Consider B2, for which the binding result in experiment [2] is “binds”.

B3: Merlin (Mer), full length, expressed in S2R+ cells (protein, UniProt Q24564 1-635)
chain: T1 sequence
As for B3, in experiment [3], the binding result is “binds”.
